Results reported in PMC7956269.
These are yes or no findings as the source states them, for the method shown. In cells and extracts the contact can be indirect. Here binding means that the protein was enriched with, or labelled near, the bait; the list need not be complete.

B1: Nrf1 (protein, UniProt Q16656 1-503)
chain: MEEHGVTQTEHMATIEAHAVAQQVQQVHVATYTEHSMLSADEDSPSSPEDTSYDDSDILNSTAADEVTAHLAAAGPVGMAAAAAVATGKKRKRPHVFESNPSIRKRQQTRLLRKLRATLDEYTTRVGQQAIVLCISPSKPNPVFKVFGAAPLENVVRKYKSMILEDLESALAEHAPAPQEVNSELPPLTIDGIPVSVDKMTQAQLRAFIPEMLKYSTGRGKPGWGKESCKPIWWPEDIPWANVRSDVRTEEQKQRVSWTQALRTIVKNCYKQHGREDLLYAFEDQQTQTQATATHSIAHLVPSQTVVQTFSNPDGTVSLIQVGTGATVATLADASELPTTVTVAQVNYSAVADGEVEQNWATLQGGEMTIQTTQASEATQAVASLAEAAVAASQEMQQGATVTMALNSEAAAHAVATLAEATLQGGGQIVLSGETAAAVGALTGVQDANGLVQIPVSMYQTVVTSLAQGNGPVQVAMAPVTTRISDSAVTMDGQAVEVVTLEQ
B2: S100a9 (protein, UniProt P06702 1-114)
chain: MTCKMSQLERNIETIINTFHQYSVKLGHPDTLNQGEFKELVRKDLQNFLKKENKNEKVIEHIMEDLDTNADKQLSFEEFIMLMARLTWASHEKMHEGDEGPGHHHKPGLGEGTP
B3: Stt3a (protein, UniProt P46977 1-705)
chain: MTKFGFLRLSYEKQDTLLKLLILSMAAVLSFSTRLFAVLRFESVIHEFDPYFNYRTTRFLAEEGFYKFHNWFDDRAWYPLGRIIGGTIYPGLMITSAAIYHVLHFFHITIDIRNVCVFLAPLFSSFTTIVTYHLTKELKDAGAGLLAAAMIAVVPGYISRSVAGSYDNEGIAIFCMLLTYYMWIKAVKTGSICWAAKCALAYFYMVSSWGGYVFLINLIPLHVLVLMLTGRFSHRIYVAYCTVYCLGTILSMQISFVGFQPVLSSEHMAAFGVFGLCQIHAFVDYLRSKLNPQQFEVLFRSVISLVGFVLLTVGALLMLTGKISPWTGRFYSLLDPSYAKNNIPIIASVSEHQPTTWSSYYFDLQLLVFMFPVGLYYCFSNLSDARIFIIMYGVTSMYFSAVMVRLMLVLAPVMCILSGIGVSQVLSTYMKNLDISRPDKKSKKQQDSTYPIKNEVASGMILVMAFFLITYTFHSTWVTSEAYSSPSIVLSARGGDGSRIIFDDFREAYYWLRHNTPEDAKVMSWWDYGYQITAMANRTILVDNNTWNNTHISRVGQAMASTEEKAYEIMRELDVSYVLVIFGGLTGYSSDDINKFLWMVRIGGSTDTGKHIKENDYYTPTGEFRVDREGSPVLLNCLMYKMCYYRFGQVYTEAKRPPGFDRVRNAEIGNKDFELDVLEEAYTTEHWLVRIYKVKDLDNRGLSRT
B4: Lcp1 (protein, UniProt P13796 1-627)
chain: MARGSVSDEEMMELREAFAKVDTDGNGYISFNELNDLFKAACLPLPGYRVREITENLMATGDLDQDGRISFDEFIKIFHGLKSTDVAKTFRKAINKKEGICAIGGTSEQSSVGTQHSYSEEEKYAFVNWINKALENDPDCRHVIPMNPNTNDLFNAVGDGIVLCKMINLSVPDTIDERTINKKKLTPFTIQENLNLALNSASAIGCHVVNIGAEDLKEGKPYLVLGLLWQVIKIGLFADIELSRNEALIALLREGESLEDLMKLSPEELLLRWANYHLENAGCNKIGNFSTDIKDSKAYYHLLEQVAPKGDEEGVPAVVIDMSGLREKDDIQRAECMLQQAERLGCRQFVTATDVVRGNPKLNLAFIANLFNRYPALHKPENQDIDWGALEGETREERTFRNWMNSLGVNPRVNHLYSDLSDALVIFQLYEKIKVPVDWNRVNKPPYPKLGGNMKKLENCNYAVELGKNQAKFSLVGIGGQDLNEGNRTLTLALIWQLMRRYTLNILEEIGGGQKVNDDIIVNWVNETLREAKKSSSISSFKDPKISTSLPVLDLIDAIQPGSINYDLLKTENLNDDEKLNNAKYAISMARKIGARVYALPEDLVEVNPKMVMTVFACLMGKGMKRV
B5: Srsf3 (protein, UniProt P84103 1-164)
chain: MHRDSCPLDCKVYVGNLGNNGNKTELERAFGYYGPLRSVWVARNPPGFAFVEFEDPRDAADAVRELDGRTLCGCRVRVELSNGEKRSRNRGPPPSWGRRPRDDYRRRSPPPRRRSPRRRSFSRSRSRSLSRDRRRERSLSRERNHKPSRSFSRSRSRSRSNERK
B6: Hnrnpm (protein, UniProt P52272 1-730)
chain: MAAGVEAAAEVAATEIKMEEESGAPGVPSGNGAPGPKGEGERPAQNEKRKEKNIKRGGNRFEPYANPTKRYRAFITNIPFDVKWQSLKDLVKEKVGEVTYVELLMDAEGKSRGCAVVEFKMEESMKKAAEVLNKHSLSGRPLKVKEDPDGEHARRAMQKVMATTGGMGMGPGGPGMITIPPSILNNPNIPNEIIHALQAGRLGSTVFVANLDYKVGWKKLKEVFSMAGVVVRADILEDKDGKSRGIGTVTFEQSIEAVQAISMFNGQLLFDRPMHVKMDERALPKGDFFPPERPQQLPHGLGGIGMGLGPGGQPIDANHLNKGIGMGNIGPAGMGMEGIGFGINKMGGMEGPFGGGMENMGRFGSGMNMGRINEILSNALKRGEIIAKQGGGGGGGSVPGIERMGPGIDRLGGAGMERMGAGLGHGMDRVGSEIERMGLVMDRMGSVERMGSGIERMGPLGLDHMASSIERMGQTMERIGSGVERMGAGMGFGLERMAAPIDRVGQTIERMGSGVERMGPAIERMGLSMERMVPAGMGAGLERMGPVMDRMATGLERMGANNLERMGLERMGANSLERMGLERMGANSLERMGPAMGPALGAGIERMGLAMGGGGGASFDRAIEMERGNFGGSFAGSFGGAGGHAPGVARKACQIFVRNLPFDFTWKMLKDKFNECGHVLYADIKMENGKSKGCGVVKFESPEVAERACRMMNGMKLSGREIDVRIDRNA
B7: Zcchc17 (protein, UniProt Q9NP64 1-241)
chain: MNSGRPETMENLPALYTIFQGEVAMVTDYGAFIKIPGCRKQGLVHRTHMSSCRVDKPSEIVDVGDKVWVKLIGREMKNDRIKVSLSMKVVNQGTGKDLDPNNVIIEQEERRRRSFQDYTGQKITLEAVLNTTCKKCGCKGHFAKDCFMQPGGTKYSLIPDEEEEKEEAKSAEFEKPDPTRNPSRKRKKEKKKKKHRDRKSSDSDSSDSESDTGKRARHTSKDSKAAKKKKKKKKHKKKHKE
B8: Tbl3 (protein, UniProt Q12788 1-808)
chain: MAETAAGVGRFKTNYAVERKIEPFYKGGKAQLDQTGQHLFCVCGTRVNILEVASGAVLRSLEQEDQEDITAFDLSPDNEVLVTASRALLLAQWAWQEGSVTRLWKAIHTAPVATMAFDPTSTLLATGGCDGAVRVWDIVRHYGTHHFRGSPGVVHLVAFHPDPTRLLLFSSATDAAIRVWSLQDRSCLAVLTAHYSAVTSLAFSADGHTMLSSGRDKICIIWDLQSCQATRTVPVFESVEAAVLLPEEPVSQLGVKSPGLYFLTAGDQGTLRVWEAASGQCVYTQAQPPGPGQELTHCTLAHTAGVVLTATADHNLLLYEARSLRLQKQFAGYSEEVLDVRFLGPEDSHVVVASNSPCLKVFELQTSACQILHGHTDIVLALDVFRKGWLFASCAKDQSVRIWRMNKAGQVMCVAQGSGHTHSVGTVCCSRLKESFLVTGSQDCTVKLWPLPKALLSKNTAPDNGPILLQAQTTQRCHDKDINSVAIAPNDKLLATGSQDRTAKLWALPQCQLLGVFSGHRRGLWCVQFSPMDQVLATASADGTIKLWALQDFSCLKTFEGHDASVLKVAFVSRGTQLLSSGSDGLVKLWTIKNNECVRTLDAHEDKVWGLHCSRLDDHALTGASDSRVILWKDVTEAEQAEEQARQEEQVVRQQELDNLLHEKRYLRALGLAISLDRPHTVLTVIQAIRRDPEACEKLEATMLRLRRDQKEALLRFCVTWNTNSRHCHEAQAVLGVLLRREAPEELLAYEGVRAALEALLPYTERHFQRLSRTLQAAAFLDFLWHNMKLPVPAAAPTPWETHKGALP
B9: Hnrnpdl (protein, UniProt O14979 1-420)
chain: MEVPPRLSHVPPPLFPSAPATLASRSLSHWRPRPPRQLAPLLPSLAPSSARQGARRAQRHVTAQQPSRLAGGAAIKGGRRRRPDLFRRHFKSSSIQRSAAAAAATRTARQHPPADSSVTMEDMNEYSNIEEFAEGSKINASKNQQDDGKMFIGGLSWDTSKKDLTEYLSRFGEVVDCTIKTDPVTGRSRGFGFVLFKDAASVDKVLELKEHKLDGKLIDPKRAKALKGKEPPKKVFVGGLSPDTSEEQIKEYFGAFGEIENIELPMDTKTNERRGFCFITYTDEEPVKKLLESRYHQIGSGKCEIKVAQPKEVYRQQQQQQKGGRGAAAGGRGGTRGRGRGQGQNWNQGFNNYYDQGYGNYNSAYGGDQNYSGYGGYDYTGYNYGNYGYGQGYADYSGQQSTYGKASRGGGNHQNNYQPY
B10: Vangl1 (protein, UniProt Q8TAA9 1-524)
chain: MDTESTYSGYSYYSSHSKKSHRQGERTRERHKSPRNKDGRGSEKSVTIQPPTGEPLLGNDSTRTEEVQDDNWGETTTAITGTSEHSISQEDIARISKDMEDSVGLDCKRYLGLTVASFLGLLVFLTPIAFILLPPILWRDELEPCGTICEGLFISMAFKLLILLIGTWALFFRKRRADMPRVFVFRALLLVLIFLFVVSYWLFYGVRILDSRDRNYQGIVQYAVSLVDALLFIHYLAIVLLELRQLQPMFTLQVVRSTDGESRFYSLGHLSIQRAALVVLENYYKDFTIYNPNLLTASKFRAAKHMAGLKVYNVDGPSNNATGQSRAMIAAAARRRDSSHNELYYEEAEHERRVKKRKARLVVAVEEAFIHIQRLQAEEQQKAPGEVMDPREAAQAIFPSMARALQKYLRITRQQNYHSMESILQHLAFCITNGMTPKAFLERYLSAGPTLQYDKDRWLSTQWRLVSDEAVTNGLRDGIVFVLKCLDFSLVVNVKKIPFIILSEEFIDPKSHKFVLRLQSETSV
B11: Mcm5 (protein, UniProt P33992 1-734)
chain: MSGFDDPGIFYSDSFGGDAQADEGQARKSQLQRRFKEFLRQYRVGTDRTGFTFKYRDELKRHYNLGEYWIEVEMEDLASFDEDLADYLYKQPAEHLQLLEEAAKEVADEVTRPRPSGEEVLQDIQVMLKSDASPSSIRSLKSDMMSHLVKIPGIIIAASAVRAKATRISIQCRSCRNTLTNIAMRPGLEGYALPRKCNTDQAGRPKCPLDPYFIMPDKCKCVDFQTLKLQELPDAVPHGEMPRHMQLYCDRYLCDKVVPGNRVTIMGIYSIKKFGLTTSRGRDRVGVGIRSSYIRVLGIQVDTDGSGRSFAGAVSPQEEEEFRRLAALPNVYEVISKSIAPSIFGGTDMKKAIACLLFGGSRKRLPDGLTRRGDINLLMLGDPGTAKSQLLKFVEKCSPIGVYTSGKGSSAAGLTASVMRDPSSRNFIMEGGAMVLADGGVVCIDEFDKMREDDRVAIHEAMEQQTISIAKAGITTTLNSRCSVLAAANSVFGRWDETKGEDNIDFMPTILSRFDMIFIVKDEHNEERDVMLAKHVITLHVSALTQTQAVEGEIDLAKLKKFIAYCRVKCGPRLSAEAAEKLKNRYIIMRSGARQHERDSDRRSSIPITVRQLEAIVRIAEALSKMKLQPFATEADVEEALRLFQVSTLDAALSGTLSGVEGFTSQEDQEMLSRIEKQLKRRFAIGSQVSEHSIIKDFTKQKYPEHAIHKVLQLMLRRGEIQHRMQRKVLYRLK

What follows are binders tested against Biotin-FOXC1 (mouse) (UniProt Q61572) (assay: affinity purification with mass spectrometry; streptavidin-agarose precipitation of biotinylated FOXC1 from nuclear extract of stable HEK293T cells (293T-Biotin-FOXC1); IP350 buffer (350 mM NaCl, 20 mM Tris-HCl pH 7.5, 0.5% NP40, 1 mM EDTA, 10% glycerin); SDS-PAGE, LC-ESI-MS/MS; proteins of the 293T-Biotin control deducted).
B1 was tested, and the binding was “binds”.
With B2 the binding was “binds”.
B3 was tested, and the binding was “binds”.
B4 was tested, and the binding was “binds”.
With B5 the binding was “binds”.
With B6 the binding was “binds”.
With B7 the binding was “binds”.
B8 was tested, and the binding was “binds”.
In the case of B9, the binding is reported as “binds”.
B10 was tested, and the binding was “binds”.
With B11 the binding was “binds”.
